No constants are given. Whether binding was seen depends on the method and setting. For some assays here: In cells and extracts the contact can be indirect. Some entries that bind do so weakly or less than the wild type. For some assays here: Where a sequence is shown, tags or fusion partners need not be part of it. Values belong to the binder of their own block, whether it stands above or below them.
Assays:
[1] = target: recombinant GST-C-Myc protein (UniProt P01106); test: pull-down; in vitro co-IP: recombinant KLHL37-His incubated with GST fusion protein at RT (25°C) for 3 hours, then GST resin (preblocked with 1% BSA); IP: GST, IB: KLHL37; both purified
[2] = target: endogenous N-Myc (human (endogenous in SK-N-BE(2))) (UniProt P04198); test: proximity ligation; in situ PLA in SK-N-BE(2) cells with antibodies to KLHL37 and N-Myc; also after RTA-408 (1 μM) with MG132 (4 μM)
[3] = target: N-Myc (overexpressed in HEK293T, Figure 4F) (UniProt P04198); test: co-IP; HEK-293T cells transfected 48 hours with plasmids overexpressing the proteins; RIPA lysis buffer; IP beads at 4°C overnight; immunoblotting
N-Myc 1–89 aa segment = N-Myc 1–89 aa segment (UniProt P04198); test: as above
[4] = target: N-Myc 1–89 aa segment with T58 and S62 mutated (T58A/S62A) (UniProt P04198); test: as above
recombinant GFP–C-Myc = recombinant GFP–C-Myc (UniProt P01106); test: MST; GFP–N-Myc or GFP–C-Myc at 200 nM in PBS-T (0.05% Tween 20); KLHL37-His serially diluted 16 times from 27.3 nM (N-Myc) or 7 μM (C-Myc); mixed 1:1; EC50 fitted; both purified
[5] = target: N-Myc-1-89aa-HA T58A/S62A mutant (UniProt P04198); test: co-IP; cells transfected 48 h, lysed in RIPA buffer; lysate with IP beads (anti-Flag or anti-HA) at 4°C overnight; washed 5 times (50 mmol/L Tris-HCl, 150 mmol/L NaCl, 1% NP40, pH 8.0); immunoblot
[6] = target: N-Myc-1-89aa-HA wild type (UniProt P04198); test: as above
N-Myc–Flag = N-Myc–Flag (UniProt P04198); test: co-IP; HEK-293T cells transfected 48 hours with plasmids overexpressing the proteins; RIPA lysis buffer; IP beads at 4°C overnight; immunoblotting
[7] = target: N-Myc-Flag T58A/S62A mutant (UniProt P04198); test: co-IP; cells transfected 48 h, lysed in RIPA buffer; lysate with IP beads (anti-Flag or anti-HA) at 4°C overnight; washed 5 times (50 mmol/L Tris-HCl, 150 mmol/L NaCl, 1% NP40, pH 8.0); immunoblot
N-Myc-Flag wild type = N-Myc-Flag wild type (UniProt P04198); test: as above

Sequences of proteins named here, by UniProt entry; tags and fusion partners are left off. A change or cut given only in a name is not applied to a line headed by its entry. A line that says so, or that is headed by a name, gives the form on record, which may keep a tag or linker. Residues count along the entry.
UniProt P01106: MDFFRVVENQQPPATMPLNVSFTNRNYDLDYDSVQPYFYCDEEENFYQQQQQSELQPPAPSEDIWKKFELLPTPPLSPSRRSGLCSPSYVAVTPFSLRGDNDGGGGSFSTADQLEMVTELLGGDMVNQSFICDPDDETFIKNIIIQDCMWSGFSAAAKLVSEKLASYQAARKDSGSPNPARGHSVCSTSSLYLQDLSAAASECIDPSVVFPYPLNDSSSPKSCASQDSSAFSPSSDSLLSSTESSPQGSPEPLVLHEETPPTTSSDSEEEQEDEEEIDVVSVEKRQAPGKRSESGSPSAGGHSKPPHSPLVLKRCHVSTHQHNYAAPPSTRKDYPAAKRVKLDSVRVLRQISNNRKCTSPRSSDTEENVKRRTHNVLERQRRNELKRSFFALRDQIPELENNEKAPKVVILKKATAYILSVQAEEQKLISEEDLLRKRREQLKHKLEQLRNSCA
UniProt P04198: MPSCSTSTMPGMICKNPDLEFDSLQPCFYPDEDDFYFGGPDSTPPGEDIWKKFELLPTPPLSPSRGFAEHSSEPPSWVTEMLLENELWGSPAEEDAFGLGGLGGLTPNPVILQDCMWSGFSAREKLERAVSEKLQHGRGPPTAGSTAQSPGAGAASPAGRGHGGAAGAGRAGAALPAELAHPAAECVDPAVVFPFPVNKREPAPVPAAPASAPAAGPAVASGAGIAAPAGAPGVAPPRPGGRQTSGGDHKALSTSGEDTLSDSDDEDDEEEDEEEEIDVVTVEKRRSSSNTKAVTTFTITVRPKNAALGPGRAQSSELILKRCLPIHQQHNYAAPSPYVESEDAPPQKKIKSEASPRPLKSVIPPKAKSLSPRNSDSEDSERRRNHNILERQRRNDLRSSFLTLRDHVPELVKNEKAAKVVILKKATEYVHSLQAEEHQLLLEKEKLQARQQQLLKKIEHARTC
N-Myc-1-89aa-HA wild type: residues 1-89 of P04198
N-Myc-1-89aa-HA T58A/S62A mutant (P04198, form named): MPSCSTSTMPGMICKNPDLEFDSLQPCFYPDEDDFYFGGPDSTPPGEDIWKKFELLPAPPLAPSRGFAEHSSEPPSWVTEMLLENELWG

B1: recombinant KLHL37-His protein (protein, UniProt O14682 1-589)
chain: MSVSVHENRKSRASSGSINIYLFHKSSYADSVLTHLNLLRQQRLFTDVLLHAGNRTFPCHRAVLAACSRYFEAMFSGGLKESQDSEVNFDNSIHPEVLELLLDYAYSSRVIINEENAESLLEAGDMLEFQDIRDACAEFLEKNLHPTNCLGMLLLSDAHQCTKLYELSWRMCLSNFQTIRKNEDFLQLPQDMVVQLLSSEELETEDERLVYESAINWISYDLKKRYCYLPELLQTVRLALLPAIYLMENVAMEELITKQRKSKEIVEEAIRCKLKILQNDGVVTSLCARPRKTGHALFLLGGQTFMCDKLYLVDQKAKEIIPKADIPSPRKEFSACAIGCKVYITGGRGSENGVSKDVWVYDTLHEEWSKAAPMLVARFGHGSAELKHCLYVVGGHTAATGCLPASPSVSLKQVEHYDPTINKWTMVAPLREGVSNAAVVSAKLKLFAFGGTSVSHDKLPKVQCYDQCENRWTVPATCPQPWRYTAAAVLGNQIFIMGGDTEFSACSAYKFNSETYQWTKVGDVTAKRMSCHAVASGNKLYVVGGYFGIQRCKTLDCYDPTLDVWNSITTVPYSLIPTAFVSTWKHLPS
binding [1]: binds

B2: endogenous KLHL37 (protein, UniProt O14682 1-589)
chain: B1 chain
binding [2]: binds

B3: WT KLHL37 (overexpressed in HEK-293T, Figures 4F and 4J) (protein, UniProt O14682 1-589)
chain: B1 chain
binding [3]: binds
binding (N-Myc 1–89 aa segment): binds
binding [4]: binds

B4: KLHL37-His recombinant protein (protein, UniProt O14682 1-589)
chain: B1 chain
binding (recombinant GFP–C-Myc): binds

The next lines start with the values.

binding [5]: binds
binding [6]: binds
B5: KLHL37-Flag (protein, UniProt O14682 1-589)
chain: B1 chain

binding (N-Myc–Flag): binds
binding [7]: binds
binding (N-Myc-Flag wild type): binds
B6: KLHL37-HA (protein, UniProt O14682 1-589)
chain: B1 chain

From PMC12259267, “Disruption of the KLHL37–N-Myc complex restores N-Myc degradation and arrests neuroblastoma growth in mouse models” (The Journal of Clinical Investigation, 2025)
